Experimental data: PubChem BioAssay AID652272 (Drosophila RNAi Screening Center, 2013)
Aim: 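Finding fly genes that regulate Hedgehog signal transduction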 (primary screen). System: Drosophila clone 8 (Cl8) cells. Reagent: long dsRNA against Drosophila genes. Read-out: 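Firefly light from a Hedgehog-responsive ptc promoter reporter and Renilla reference light, both read on a plate reader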. Reading the numbers: firefly Hh reporter signal: higher = more ptc reporter light; Renilla reference signal: higher = more Renilla control light. Hit rule: 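Hit when the z-score averaged over two replicates is under -2 or over +3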. Calls: active = hit: reporter lowered or raised; inactive = not a hit.
The deposit covers about 21,000 reagents; shown is a random part of those that have a named target and a result. Of all reagents, 503 (2.4%) are marked active. 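Raw plate light values, not normalised; calls rest on replicate z-scores that were not deposited; hits include reporter decreases as well as increases.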 Unmarked entries are inactive. The numbers tell different reagents against one gene apart. Not stated in the record: the amount of reagent, the time to read-out.

predicted target	dsRNA no.	firefly Hh reporter signal, replicate 1	firefly Hh reporter signal, replicate 2	Renilla reference signal, replicate 1	Renilla reference signal, replicate 2
Gr39a (GeneID 117346)	1	1.65e5	1.66e5	4258	8147
Gr39a (GeneID 117346)	2	1.40e5	2.29e5	3523	11147
CG15728 (GeneID 32214)	1	1.42e5	3.62e5	4994	12464
Gr47a (GeneID 36094)	1	70835	48747	1584	3984
CG12115 (GeneID 31853)	1	1.59e5	3.53e5	5544	13264
CR16735 (GeneID 10178810)	1	1.01e5	1.15e5	4128	3376
trem (GeneID 42392)	1	5.95e5	1.20e5	30134	3133
Diap2 (GeneID 36748)	1	79693	50214	4391	2162
CG34241 (GeneID 5740575)	1	1.89e5	3.03e5	4880	11364
Srrm234 (GeneID 38206)	1	97763	1.82e5	3211	8220
Srrm234 (GeneID 38206)	2	65171	61484	3024	2167
orion (GeneID 31712)	1	65643	2.05e5	1456	7841
orion (GeneID 31712)	2	77509	2.62e5	2184	10161
Spn42Dc (GeneID 35600)	1	88048	40747	2123	3544
TwdlE (GeneID 34075)	1	1.04e5	55283	2938	5232
CG30050 (GeneID 246417)	1	92449	1.89e5	2497	8697
CG14913 (GeneID 34532)	1	1.39e5	54251	3440	4989
CG42795 (GeneID 41252)	1	2.15e5		4880	
CG42795 (GeneID 41252)	2	58808	60492	1627	1926
CG14947 (GeneID 34628)	1	79181	49542	2032	4795
CG5973 (GeneID 34023)	1	1.10e5	1.28e5	4548	5584
CG43339 (GeneID 8674062)	1	56626	51664	2802	2082
CG3640 (GeneID 37942)	1	91977	68116	1465	6171
drd (GeneID 318102)	1	87490	2.16e5	3248	8487
CG15141 (GeneID 35044)	1	57348	48772	2508	1613
CG15141 (GeneID 35044)	2	1.12e5	67689	2826	6032
dnt (GeneID 35207)	1	52691	36474	2760	1907
CG5937 (GeneID 31537)	1	58401	1.46e5	1524	5990
CG31633 (GeneID 33931)	1	1.22e5	87520	3293	8435
Appl (GeneID 31002)	1	1.48e5	78400	3440	2954
CG7798 (GeneID 36798)	1	55474	31531	1349	2490
E5 (GeneID 45396)	1	22650	1.71e5	784	3830
E5 (GeneID 45396)	2	32890 (active)	14288	1590	725
nAChRalpha3 (GeneID 31767)	1	67712	3.56e5	2056	12204
CG14695 (GeneID 41314)	1	59392	1.23e5	2157	3097
CG14589 (GeneID 35541)	1	88774	62688	1665	4717
ND-B14 (GeneID 36159)	1	90396	35401	1558	1706
CG9759 (GeneID 41661)	1	1.99e5	85548	6871	1106
Set2 (GeneID 32301)	1	90279 (active)	82385	1466	1274
CG2906 (GeneID 35753)	1	95634	58386	2388	5078
CG31199 (GeneID 42456)	1	1.28e5	64528	5250	2692
CG12824 (GeneID 35727)	1	1.40e5	71989	3595	6112
CG33771 (GeneID 3772424)	1	5.20e5	99952	4224	4224
5-HT2A (GeneID 40575)	1	1.02e5	94700	3397	3857
CG34338 (GeneID 5740687)	1	4.92e5	1.34e5	28836	3585
eIF4B (GeneID 3355041)	1	61146	1.94e5	896	6947
fray (GeneID 44233)	1	6.50e5	98467	27993	2768
Smyd4-4 (GeneID 36299)	1	62369	45275	2905	2160
Acat1 (GeneID 31695)	1	80875	78331	1910	1992
CG11686 (GeneID 50024)	1	71504	69830	2122	1990
pHCl-1 (GeneID 39730)	1	2.34e5		5952	
pHCl-1 (GeneID 39730)	2	75344		3856	2365
pHCl-1 (GeneID 39730)	3	96005		5901	2932
pHCl-1 (GeneID 39730)	4	1.04e5		5362	3264
CG43759 (GeneID 32889)	1	1.35e5	1.24e5	3018	2965
CG43759 (GeneID 32889)	2	74086 (active)	42996	7124	1848
CG13850 (GeneID 42630)	1	97703	80498	4229	3568

Records above whose target name starts with S or s:
predicted target	dsRNA no.	firefly Hh reporter signal, replicate 1	firefly Hh reporter signal, replicate 2	Renilla reference signal, replicate 1	Renilla reference signal, replicate 2
Srrm234 (GeneID 38206)	1	97763	1.82e5	3211	8220
Srrm234 (GeneID 38206)	2	65171	61484	3024	2167
Spn42Dc (GeneID 35600)	1	88048	40747	2123	3544
Set2 (GeneID 32301)	1	90279 (active)	82385	1466	1274
Smyd4-4 (GeneID 36299)	1	62369	45275	2905	2160
